## Library screening results

Source: ChEMBL document CHEMBL3988442, “University of Dundee, Small-Polar-MMV Screening Library” (2021).

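Assay on Mycobacterium tuberculosis, filed only as a heat shock assay from Cornell; the read-out is not stated. The concentration is filed as 10 mM, unlikely as a test dose, so the dose is not known. The record gives no direction; compounds that gave an IC50 in retests scored well above the rest, so higher reads as stronger inhibition. Of about 69,000 compounds tested this way, about 930 (1.4%) reached 50% or more in at least one test.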

The filed quantity is “Percent Effect” (%).
The controls that fix the scale are not given in the record; negative values are as filed.
This is an unselected part of the compounds tested.

SMILES	percent effect
Cn1cc(-c2ncc3c(c2C(=O)O)CCN(CC2CC2)C3)cn1.O=C(O)C(F)(F)F.O=C(O)C(F)(F)F	29.77
CC(C)(C(=O)N1CCC(C(N)=O)C1)c1ccccc1F (centres undefined)	7.792
Cc1ccc(CN2CCc3ncnc(-c4ccoc4)c3CC2)o1.O=C(O)C(F)(F)F	-5.17
O=c1ccc(-c2ccccc2F)nn1CCN1CCCS1(=O)=O	-4.546
CCn1cnc(NC(=O)N2CCCC(c3ccccc3)CC2)n1 (centres undefined)	2.362
CC(C)Oc1nnc(SCC(=O)NCC(=O)N2CCCC2)s1	1.705
COc1cccc(-c2noc(-c3ccc(N4CC(N)C4)nc3)n2)c1OC	-15.03
CSc1ccccc1CN1CCn2nc(CNC(=O)N(C)C)cc2C1	-7.615
O=C(c1ccc2cccc(F)c2n1)N1CCN(CCn2cccc2)CC1	-7.491
O=C(COc1ccc(Cl)cc1)Nc1cnc(N2CCOCC2)nc1	5.191
COCc1ncn2c1CN(C(=O)Nc1ccccc1)CC2	-7.334
COC(=O)C1CCCN1C(=O)c1ccc(-n2nc(C)cc2C)cc1 (centres undefined)	-7.239
CC1CCc2nc(O)c(C(=O)NCc3cccc(F)c3)cc2C1 (centres undefined)	-1.132
COc1ccc2c(ccn2CC(=O)N2CCCC2Cn2cccn2)c1 (centres undefined)	-7.633
Cc1csc(N2CCCN(C(=O)c3c(C)noc3C)CC2)n1	-9.662
CC(=O)Nc1ccc(/C=C/c2ncc(C(=O)O)s2)cc1	-4.361
COc1ccc(NC(=O)N2CCCCCC2c2ccncc2)cn1 (centres undefined)	4.957
[H][C@@]12COC[C@]1([H])[C@@H](OCc1csc(C)n1)CN2C(=O)c1cccnc1	6.031
CCn1nc2c(cc1=O)CN(Cc1ccc(-n3cccn3)cc1)CC2	-2.322
O=C(COc1ccccc1Cl)N1CCCC(n2ccnc2)C1 (centres undefined)	-18.44
Cc1ccccc1-n1cnnc1SCC(=O)NCC1CCCO1 (centres undefined)	23.01
CN(C(=O)Nc1cccnc1)C1CCN(c2ccc(Cl)cc2)CC1	2.026
Cc1csc(C(=O)N2CC[C@H](Oc3cccnc3C)[C@@H](O)CC2)c1	-23.55
Cc1nc(CN2CCN(C(=O)Cc3cccc(Cl)c3)CC2)no1	12.39
CN(CC(=O)NCc1cc2ccccc2o1)S(C)(=O)=O	-5.766
CC(C)c1nsc(N2CCn3c(nnc3-c3ccccc3)C2)n1	-26.32
CC(C)n1cnnc1CNC(=O)CCCOc1ccccc1F	-9.231
O=C(N[C@@H]1CCN(c2nccc3ccccc23)C[C@H]1O)c1cnccn1	20.79
COC(=O)CN1CCN(c2nc3c(s2)c(C)nn3C)C(C)C1=O (centres undefined)	-9.422
CC(C)[C@H](NS(C)(=O)=O)C(=O)NCc1cc(-c2ccccc2)n[nH]1	-21.71
N#CCCN1CCC(=Cc2ccccc2)CC1	-15.71
CCc1nnsc1C(=O)N(C)Cc1nnc2n1CCC2	-31.45
CC(C)=CCC/C(C)=C/CC(C)(C)CNCc1ccco1	-8.225
[H][C@]12CN(C(=O)CCc3ccsc3)CC[C@@]1(O)CCN(C(=O)COC)C2	0.5756
Cc1ncsc1C(=O)OCCN1CCCc2ccccc21	-21.23
CCc1nnsc1C(=O)N(C)Cc1ccco1	-2.14
Cc1nccn1-c1ccc(N2CCC(NC(C)C(C)C)CC2)cc1 (centres undefined)	-11.17
CCNC(=O)c1c2c(N3CCN(C)CC3)ncnc2n2ccccc12	-8.788
CC(c1cccnc1)N(C)C(=O)NCCOc1ccc(C#N)cc1 (centres undefined)	7.31
O=C(NCc1cn2c(n1)CN(CC1CCOCC1)CC2)C1CCC1.O=C(O)C(F)(F)F	-7.731
Cc1nnsc1C(=O)N1CCCCC1c1cc2nc(C)c(C)c(O)n2n1 (centres undefined)	5.315
O=C(Cc1c(F)cccc1F)N1CCN(CC(=O)N2CCCC2)CC1	-15.51
CC(C)[C@@H](C)NC(=O)N1CCn2nc(C(=O)NCCN(C)C)cc2C1	-25.77
O=c1nc(SCc2ccc(Cl)cc2)c2c(n1CCO)CCC2	-23.11
Cc1ncsc1CCN(C)C(=O)CN1CCCCC1=O	-19.17
COc1ccc(Cc2cccc(C3CCN(C)CC3)n2)cc1	19.82
CN(C)Cc1cnc2n1CCN(C(=O)NC1CCCC1)CC2.O=C(O)C(F)(F)F	-5.595
O=C(c1ccc2[nH]cnc2c1)N1CCC(Oc2cccnc2)CC1	13.85
Cc1ncc(CNCCO)c2cc(C(=O)c3ccc(Br)cc3)oc12.Cl	80.79
CCn1ncc2c1C(COC)CN(S(=O)(=O)C1CC1)C2 (centres undefined)	2.329
Cn1c(Cl)cnc1CN1CCCC1c1ccc2c(c1)OCCO2 (centres undefined)	-19.26
C1CN(c2nc3c(c(NC4CC4)n2)CN(CC2CCOC2)CC3)CCO1 (centres undefined)	-1.092
Cc1nc2c(c(NCCc3nccs3)n1)CCN(CC1CC1)CC2	-27.33
O=C(c1cccnc1O)N(Cc1ccsc1)CC1CCCO1 (centres undefined)	-13.12
O=C(O)C(F)(F)F.O=C(c1cscn1)N1CCC2(CN(Cc3nccs3)C2)C1	-2.213
Cc1ccccc1C(=O)N1CCC2(CCC(C(=O)NCC3CC3)O2)CC1 (centres undefined)	-6.427
Cc1cc(C)c(CNc2ncnc3ccccc23)c(=O)[nH]1	13.76
Cc1cccc(-n2cnc(Cl)c2C(=O)O)c1	5.703
Cc1ncc(CN(C)C(=O)Nc2cccc(N3CCOC3=O)c2)s1	20.97
CCCN1CCN(CC(O)c2ccc(OC(F)(F)F)cc2)CC1 (centres undefined)	-2.695
Cc1cccc(C)c1Nc1noc2c1CN(C(=O)c1c[nH]nc1C)CC2	-2.831
CC(NC(=O)N1CCS(=O)(=O)CC1)c1ccc(F)cc1Cl (centres undefined)	0.3143
COc1cc(S(=O)(=O)N2CCc3ccccc32)cc(C(=O)O)c1OC	1.43
COc1ccccc1N1CCN(C(=O)c2ccoc2)CC1	-13.15
Cc1nn(C)c(C)c1-c1cncc(C2CCN(S(C)(=O)=O)CC2)n1	7.435
O=C(CN1CCC(Nc2ncccn2)CC1)Nc1ccccc1	7.361
CC(C)C(=O)NCCNC(=O)C(C)OCC(F)(F)F (centres undefined)	28.68
COc1ccccc1N(C)Cc1nc2c(cnn2C)c(=O)[nH]1	-3.578
[H][C@@]12CCN(C[C@@H]1c1cc(-c3cccs3)nn1C)[C@@H](CNS(C)(=O)=O)C2	-5.766
CCN(CC)C(=O)[C@@H]1C[C@@H](n2cc(-c3ccccn3)nn2)CN1	-18.91
[H][C@]12CCN(C(=O)C3CCCO3)CC[C@@]1([H])S(=O)(=O)N(CC(=O)N(C)C)C2 (some centres undefined)	-23.92
CN1CC(=O)N(c2cccc(F)c2)CC12CCN(CCO)C2.O=C(O)C(F)(F)F.O=C(O)C(F)(F)F (centres undefined)	6.861
CCNc1ncc2c(n1)CN(c1ccc(OC(F)(F)F)cc1)C2=O	-4.033
COCCN1CCOCC12CCN(c1ccc(C#N)cc1)CC2.O=C(O)C(F)(F)F	-18.45
CC(C)(C)OC(=O)N(CCNS(=O)(=O)N1CCOCC1)C1CC1	-12.87
[H][C@@]12C[C@H](c3nnc(C)o3)CN(S(=O)(=O)CC(C)C)[C@]1([H])CCO2	12.21

The last 8 entries again:

{"smiles": "[H][C@@]12CCN(C[C@@H]1c1cc(-c3cccs3)nn1C)[C@@H](CNS(C)(=O)=O)C2", "percent effect": -5.766}
{"smiles": "CCN(CC)C(=O)[C@@H]1C[C@@H](n2cc(-c3ccccn3)nn2)CN1", "percent effect": -18.91}
{"smiles": "[H][C@]12CCN(C(=O)C3CCCO3)CC[C@@]1([H])S(=O)(=O)N(CC(=O)N(C)C)C2", "stereo": "some centres undefined", "percent effect": -23.92}
{"smiles": "CN1CC(=O)N(c2cccc(F)c2)CC12CCN(CCO)C2.O=C(O)C(F)(F)F.O=C(O)C(F)(F)F", "stereo": "centres undefined", "percent effect": 6.861}
{"smiles": "CCNc1ncc2c(n1)CN(c1ccc(OC(F)(F)F)cc1)C2=O", "percent effect": -4.033}
{"smiles": "COCCN1CCOCC12CCN(c1ccc(C#N)cc1)CC2.O=C(O)C(F)(F)F", "percent effect": -18.45}
{"smiles": "CC(C)(C)OC(=O)N(CCNS(=O)(=O)N1CCOCC1)C1CC1", "percent effect": -12.87}
{"smiles": "[H][C@@]12C[C@H](c3nnc(C)o3)CN(S(=O)(=O)CC(C)C)[C@]1([H])CCO2", "percent effect": 12.21}